This is an account of results in article PMC9470683.

Protein sequences, listed by entry. Tags and fused reporters are not part of them.
UniProt O15392: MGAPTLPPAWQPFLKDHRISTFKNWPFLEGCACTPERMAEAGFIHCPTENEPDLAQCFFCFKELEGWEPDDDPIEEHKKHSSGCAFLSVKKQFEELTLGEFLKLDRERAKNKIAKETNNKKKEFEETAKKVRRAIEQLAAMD
UniProt Q9NQS7: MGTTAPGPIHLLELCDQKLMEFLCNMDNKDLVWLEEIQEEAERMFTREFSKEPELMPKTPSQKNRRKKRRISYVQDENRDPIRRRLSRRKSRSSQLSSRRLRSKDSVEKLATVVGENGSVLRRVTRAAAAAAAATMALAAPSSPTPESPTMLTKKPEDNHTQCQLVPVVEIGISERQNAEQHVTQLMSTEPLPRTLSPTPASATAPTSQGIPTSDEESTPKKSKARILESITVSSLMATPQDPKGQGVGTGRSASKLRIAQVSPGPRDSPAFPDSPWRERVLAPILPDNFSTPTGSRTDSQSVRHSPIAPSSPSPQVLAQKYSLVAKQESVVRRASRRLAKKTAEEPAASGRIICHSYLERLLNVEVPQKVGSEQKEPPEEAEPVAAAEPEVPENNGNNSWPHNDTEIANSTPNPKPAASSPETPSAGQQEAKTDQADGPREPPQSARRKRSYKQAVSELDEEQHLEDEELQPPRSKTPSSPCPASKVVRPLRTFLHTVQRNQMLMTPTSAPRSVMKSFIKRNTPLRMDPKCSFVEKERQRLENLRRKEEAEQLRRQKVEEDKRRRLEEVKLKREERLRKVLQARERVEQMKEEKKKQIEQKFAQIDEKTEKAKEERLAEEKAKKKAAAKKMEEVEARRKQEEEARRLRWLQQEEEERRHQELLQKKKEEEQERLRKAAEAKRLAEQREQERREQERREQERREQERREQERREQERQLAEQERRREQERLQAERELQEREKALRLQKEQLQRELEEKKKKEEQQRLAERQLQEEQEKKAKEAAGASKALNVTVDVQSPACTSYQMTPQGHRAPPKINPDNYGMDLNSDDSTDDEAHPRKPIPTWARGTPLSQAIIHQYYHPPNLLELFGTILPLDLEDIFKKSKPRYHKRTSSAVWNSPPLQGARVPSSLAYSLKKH

Results are given in words; binding and its absence hold for the method and conditions named. Binding seen in cells or lysates may run through a third protein. Some results given as binding are weak or reduced against the parent protein; the word gives no strength.

In assay [1] the target is Aurora B kinase (human (endogenous in RPE-1)) (UniProt Q96GD4). As to the kind of experiment: co-IP; IP with Aurora B antibody (BD 611082) or mouse IgG isotype control from metaphase-arrested mAID-Sp1 RPE-1 cells, with or without auxin-induced Sp1 degradation before mitotic entry; immunoblot for CPC members.
The target in assay [2] is T1, Aurora B kinase (human (endogenous in RPE-1)), Q96GD4.
T1 chain: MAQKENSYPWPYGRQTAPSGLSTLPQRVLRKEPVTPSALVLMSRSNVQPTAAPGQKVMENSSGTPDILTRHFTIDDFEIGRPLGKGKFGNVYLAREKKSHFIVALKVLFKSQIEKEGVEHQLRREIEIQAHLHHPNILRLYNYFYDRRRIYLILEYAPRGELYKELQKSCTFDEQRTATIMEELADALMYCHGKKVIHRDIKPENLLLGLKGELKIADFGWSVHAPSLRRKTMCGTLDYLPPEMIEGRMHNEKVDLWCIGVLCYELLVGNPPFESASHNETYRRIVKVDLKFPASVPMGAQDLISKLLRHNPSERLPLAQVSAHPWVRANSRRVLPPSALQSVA
Described as above. Particulars: remark: other sources report otherwise.

In the case of survivin (from UniProt O15392 1-142), in assay [1], the binding result was “binds”.

Turning to INCENP (from UniProt Q9NQS7 1-918), the binding entry in assay [1] is “binds”.

B1: Borealin, Q53HL2 1-280 (protein)
chain: MAPRKGSSRVAKTNSLRRRKLASFLKDFDREVEIRIKQIESDRQNLLKEVDNLYNIEILRLPKALREMNWLDYFALGGNKQALEEAATADLDITEINKLTAEAIQTPLKSAKTRKVIQVDEMIVEEEEEEENERKNLQTARVKRCPPSKKRTQSIQGKGKGKRSSRANTVTPAVGRLEVSMVKPTPGLTPRFDSRVFKTPGLRTPAAGERIYNISGNGSPLADSKEIFLTVPVGGGESLRLLASDLQRHSIAQLDPEALGNIKKLSNRLAQICSSIRTHK
For the molecule B1, in assay [2], the binding result is given as “binds”.
